No constants are given. Whether binding was seen depends on the method and setting. Some results given as binding are weak or reduced against the parent protein; the word gives no strength. Tags and fused reporters may be left off the sequences shown.
Assays:
Experiment in all cases: pull-down; FLAG-tagged proteins from transfected HEK 293 cells held on anti-FLAG M2 agarose after extensive washing; mixed with GST-DUSP5 WT (2 μg) in 1 ml PTP reaction buffer (100 mM Tris-HCl pH 7.5, 40 mM NaCl, 1 mM DTT), 3 h at 4 °C; beads washed 5 times; immunoblot; both purified
[1] = target: T1, FLAG-tagged IKKβ (UniProt O14920)
T1 sequence: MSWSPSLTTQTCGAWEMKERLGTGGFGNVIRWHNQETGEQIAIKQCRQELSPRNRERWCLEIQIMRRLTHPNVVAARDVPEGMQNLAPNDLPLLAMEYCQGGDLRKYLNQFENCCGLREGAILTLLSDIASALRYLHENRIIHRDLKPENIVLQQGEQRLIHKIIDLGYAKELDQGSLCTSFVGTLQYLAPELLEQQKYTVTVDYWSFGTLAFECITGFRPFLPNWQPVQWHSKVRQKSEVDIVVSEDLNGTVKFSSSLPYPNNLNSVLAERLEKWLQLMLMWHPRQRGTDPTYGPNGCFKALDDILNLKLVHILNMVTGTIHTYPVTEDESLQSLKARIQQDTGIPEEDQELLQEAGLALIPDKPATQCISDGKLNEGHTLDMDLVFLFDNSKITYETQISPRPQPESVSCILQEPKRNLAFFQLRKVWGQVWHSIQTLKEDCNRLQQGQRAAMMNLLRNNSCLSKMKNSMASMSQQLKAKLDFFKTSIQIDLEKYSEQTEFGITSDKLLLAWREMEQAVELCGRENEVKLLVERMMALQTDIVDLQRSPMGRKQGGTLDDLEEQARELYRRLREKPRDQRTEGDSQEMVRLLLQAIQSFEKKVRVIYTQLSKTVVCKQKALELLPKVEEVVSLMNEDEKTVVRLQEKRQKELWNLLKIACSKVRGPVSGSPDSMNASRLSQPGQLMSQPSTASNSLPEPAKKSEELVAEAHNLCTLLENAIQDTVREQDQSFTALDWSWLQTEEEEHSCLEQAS

By UniProt entry, the sequences of proteins in these tests, tags left out.
UniProt P25963: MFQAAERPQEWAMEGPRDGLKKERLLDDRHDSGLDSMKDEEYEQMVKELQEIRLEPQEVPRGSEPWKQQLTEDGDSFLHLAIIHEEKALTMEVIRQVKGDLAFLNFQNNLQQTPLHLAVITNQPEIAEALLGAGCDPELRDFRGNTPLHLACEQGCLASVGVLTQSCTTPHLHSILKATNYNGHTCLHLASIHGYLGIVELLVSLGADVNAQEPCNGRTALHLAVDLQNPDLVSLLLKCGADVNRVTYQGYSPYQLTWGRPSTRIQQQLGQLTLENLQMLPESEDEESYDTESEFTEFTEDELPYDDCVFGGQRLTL

[2] = target: T2, FLAG-tagged IKKα (UniProt O15111)
T2 sequence: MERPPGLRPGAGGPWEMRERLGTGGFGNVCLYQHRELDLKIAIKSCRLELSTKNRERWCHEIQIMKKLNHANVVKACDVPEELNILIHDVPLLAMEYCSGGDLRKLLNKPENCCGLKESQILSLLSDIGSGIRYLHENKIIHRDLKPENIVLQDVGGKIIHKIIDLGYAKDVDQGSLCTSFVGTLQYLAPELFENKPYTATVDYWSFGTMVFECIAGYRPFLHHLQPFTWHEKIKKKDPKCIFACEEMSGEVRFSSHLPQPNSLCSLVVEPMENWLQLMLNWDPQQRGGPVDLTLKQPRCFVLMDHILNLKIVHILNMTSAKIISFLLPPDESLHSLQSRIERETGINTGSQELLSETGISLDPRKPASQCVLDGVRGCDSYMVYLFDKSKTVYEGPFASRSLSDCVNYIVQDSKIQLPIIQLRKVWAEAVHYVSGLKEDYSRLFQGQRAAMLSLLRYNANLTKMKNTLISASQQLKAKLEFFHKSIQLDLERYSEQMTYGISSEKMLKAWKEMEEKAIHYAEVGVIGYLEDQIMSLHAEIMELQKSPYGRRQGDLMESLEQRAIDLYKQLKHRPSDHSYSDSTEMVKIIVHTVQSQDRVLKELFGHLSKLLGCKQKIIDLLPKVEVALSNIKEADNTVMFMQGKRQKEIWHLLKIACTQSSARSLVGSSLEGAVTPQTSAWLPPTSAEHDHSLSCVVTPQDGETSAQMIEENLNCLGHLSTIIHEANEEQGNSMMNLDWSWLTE

[3] = target: T3, FLAG-tagged TAK1 (UniProt O43318)
T3 sequence: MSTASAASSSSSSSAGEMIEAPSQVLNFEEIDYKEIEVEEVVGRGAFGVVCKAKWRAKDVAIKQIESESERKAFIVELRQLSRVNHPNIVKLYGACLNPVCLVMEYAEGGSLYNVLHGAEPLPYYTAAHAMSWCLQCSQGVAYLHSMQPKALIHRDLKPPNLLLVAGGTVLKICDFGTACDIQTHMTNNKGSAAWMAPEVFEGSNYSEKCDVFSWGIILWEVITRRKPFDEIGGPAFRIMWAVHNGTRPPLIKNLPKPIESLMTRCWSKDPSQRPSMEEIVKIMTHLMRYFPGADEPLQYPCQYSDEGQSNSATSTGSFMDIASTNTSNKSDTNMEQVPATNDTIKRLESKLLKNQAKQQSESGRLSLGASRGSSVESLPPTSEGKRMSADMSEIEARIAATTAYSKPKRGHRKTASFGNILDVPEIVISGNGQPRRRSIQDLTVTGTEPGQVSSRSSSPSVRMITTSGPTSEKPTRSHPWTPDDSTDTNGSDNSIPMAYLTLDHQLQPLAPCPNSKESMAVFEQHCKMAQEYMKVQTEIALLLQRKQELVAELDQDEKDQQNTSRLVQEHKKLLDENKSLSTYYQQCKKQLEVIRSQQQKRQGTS

[4] = target: FLAG-tagged IκBα (UniProt P25963)

B1: GST-DUSP5 WT (recombinant) (enzyme, UniProt Q16690 1-384)
chain: MKVTSLDGRQLRKMLRKEAAARCVVLDCRPYLAFAASNVRGSLNVNLNSVVLRRARGGAVSARYVLPDEAARARLLQEGGGGVAAVVVLDQGSRHWQKLREESAARVVLTSLLACLPAGPRVYFLKGGYETFYSEYPECCVDVKPISQEKIESERALISQCGKPVVNVSYRPAYDQGGPVEILPFLYLGSAYHASKCEFLANLHITALLNVSRRTSEACATHLHYKWIPVEDSHTADISSHFQEAIDFIDCVREKGGKVLVHCEAGISRSPTICMAYLMKTKQFRLKEAFDYIKQRRSMVSPNFGFMGQLLQYESEILPSTPNPQPPSCQGEAAGSSLIGHLQTLSPDMQGAYCTFPASVLAPVPTHSTVSELSRSPVATATSC
Q: How did the binding [1] turn out when B1 was run?
A: The binding was “binds”.

Q: And the binding [2]?
A: The binding was “binds”.

Q: And the binding [3]?
A: Its binding is “binds”.

Q: And the binding [4]?
A: The binding was “no binding (tested: 2 μg GST-DUSP5 in 1 ml)”.

From article PMC5725455
